Results from patent publication US11554105B2, “Combinations of artemisinins, BCL-2 inhibitors, and kinase inhibitors for cancer treatment” (UNIVERSITY OF MARYLAND, BALTIMORE, priority 2018, dated 2023).

Test system: MOLM14 cells
Test: Chou-Talalay drug combination analysis (alamarBlue) of AS or ART-838 with antileukemic drugs
Format: cell-based, human
Conditions: simultaneous 48 h, each drug at 2.25× single-drug IC50, CI<1 synergy, =1 additivity, >1 antagonism
Method: For each two-drug pair, dose-response curves were generated for each drug individually and for the two drugs combined. […] This design is based on the recommendation of Chou that combination experiments be performed with drugs combined in an equipotent ratio based on their respective single-drug IC50 values. Following a 48-hour incubation with each drug or drug pair, cytotoxicity assays were performed using alamarBlue as described above.
Each set of drug combinations was tested in at least three independent experiments, each in triplicate.
Sequences are depicted at the bottom of FIG. 5.

Compound: CO[C@@H]1[C@H](N(C)C(=O)c2ccccc2)C[C@H]2O[C@]1(C)n1c3ccccc3c3c4c(c5c6ccccc6n2c5c31)C(=O)NC4 [MID, midostaurin]
- combination index (CI) of the drug combined with AS: 1.3
